Measurements taken from patent publication EP0580763B1, “COMPOSITIONS AND METHODS FOR ENDOTHELIAL BINDING” (THE BOARD OF TRUSTEES OF THE LELAND STANFORD JUNIOR …, priority 1991, dated 1992).
Some results were stated once for a whole list of compounds, not compound by compound. At least one compound was matched to its structure with a doubt left.

Assays:
mouse LECAM-1 = assay: Cell binding assay: mouse lymphocytes on neoglycoconjugate-coated glass wells; type: cell-based; conditions: mouse lymphocytes from mesenteric lymph nodes; immobilized neoglycoconjugate
ELAM-1 = assay: Cell binding assay: ELAM-1 transfected L1-2 cells on glass slides coated with synthetic glycoconjugates; type: cell-based, human; conditions: immobilized neoglycoprotein; 25 minute incubation at RT; L1-2^vector cells as control

| Molecule | binding of mouse lymphocytes to neoglycoconjugates (mouse LECAM-1) | binding of L1-2^ELAM-1 cells to glass slides coated with synthetic glycoconjugates (ELAM-1) |
| --- | --- | --- |
| Neu5Acα2-3Galβ1-3GlcNAcβ1-3Galβ1-4(Glc) [LSTa] | but not | did not bind |
| CC(=O)N[C@H]1[C@H](O[C@H]2[C@@H](O)[C@@H](CO)O[C@@H](O[C@@H]([C@H](O)[C@@H](O)C=O)[C@H](O)CO)[C@@H]2O)O[C@H](CO)[C@@H](O[C@@H]2O[C@H](CO[C@]3(C(=O)O)C[C@H](O)[C@@H](NC(C)=O)[C@H]([C@H](O)[C@H](O)CO)O3)[C@H](O)[C@H](O)[C@H]2O)[C@@H]1O [LSTc, Neu5Aca2-6Galβ1-4GlcNAcβ1-3Galβ1-4(Glc)] | – | did not bind |
| CC(=O)N[C@H]1[C@H](O[C@H]2[C@@H](O)[C@@H](CO)O[C@@H](O[C@H]3[C@H](O)[C@@H](O)C(O)O[C@@H]3CO)[C@@H]2O)O[C@H](CO)[C@@H](O)[C@@H]1O[C@@H]1O[C@H](CO)[C@H](O)[C@H](O)[C@H]1O[C@@H]1O[C@@H](C)[C@@H](O)[C@@H](O)[C@@H]1O (some centres unmarked) [LNF I, Fucα1-2Galβ1-3GlcNACβ1-3Galβ1-4(Glc)] | but not | not at all |
